Laboratory results published in PubChem BioAssay AID2685 (National Center for Advancing Translational Sciences (NCATS), 2010).
Some of the results follow. Shown are side measurements of this screen, not its main read-out; they come without a call. The list favours compounds with an active or inconclusive main result. The note in brackets gives the kind of curve behind each potency; many fits are weak.

Assay: qHTS Assay for Lipid Storage Modulators in Drosophila S3 Cells;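 on cell number change: cells counted by Cell Tracker Red CMTPX staining in the red channel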
Conditions: BODIPY lipid droplet fluorescence, 18-24 h; for cell number change: measured here: cell count max response, cells fed with added oleic acid
Outline: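 Laser-scanning cytometry quantifies lipid droplet accumulation (500–530 nm total intensity; droplet/cell object ratio) in oleic acid-fed (400 uM added) Drosophila S3 cells treated with a concentration series. 20 uM Triacsin C defined 100% inhibition.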

[1] = measured here: lipid fluorescence (Fed channel) AC50, cells fed with added oleic acid
[2] = measured here: cell number channel AC50, cells fed with added oleic acid

Compound	cell number change	AC50 [1]	AC50 [2]
Cn1ccnc1SCC(=O)Nc1cc(S(=O)(=O)N2CCOCC2)ccc1Cl	6.35%	0.326 µM [rising, full curve]	–
Cc1ccc(S(=O)(=O)Nc2cc(C(C(=O)OC(C)C)C(=O)C(F)(F)F)c(O)c3ccccc23)c(C)c1 (stereo not drawn)	-23.8%	32.6 µM [falling, single point]	–
CC(C)(C)OC(=O)N1CCC[C@H]1c1nnc(SCc2ccc(Cl)cc2)o1	42.7%	11.6 µM [rising, partial curve]	7.31 µM [rising, partial curve, poor fit]
N#CC(C#N)=NNc1ccc(S(=O)(=O)N2CCCC2)cc1	–	11.6 µM [falling, partial curve]	4.61 µM [rising, single point]
Cc1cc(Cl)c(S(=O)(=O)N2CCSCC2)cc1OCC(=O)NC1CCCCC1	-11.6%	5.8 µM [rising, single point]	–
Cc1cc(C(=O)Nc2cccnc2)cs1	-3.81%	0.731 µM [falling, full curve]	0.731 µM [falling, single point]
COc1ccc(NC(=O)c2ccc3c(c2)C(=O)N(CC2CCCO2)C3=O)cc1O (stereo not drawn)	–	1.84 µM [falling, partial curve]	6.51 µM [falling, single point]
OC(COc1ccc2ccccc2c1)Cn1ccnc1 (stereo not drawn)	12.8%	–	0.651 µM [rising, single point]
CCc1ccc(OCC(=O)Nc2ccc(-c3cc4ccccc4oc3=O)c(OC)c2)cc1	1.02%	5.8 µM [rising, partial curve]	–
COc1cc(CNc2ccc(S(N)(=O)=O)cc2)ccc1OCC(=O)NC1CCCCC1	-4.91%	–	–
Nc1c(N)c2ccccc2oc1=O	33%	–	25.9 µM [rising, single point]
S=c1[nH]c(-c2ccccc2)cn1/N=C/c1cccnc1	17.6%	2.91 µM [rising, full curve]	–
Cc1cc(C)c(-n2c(C)cc(/C=C3/NC(=O)NC3=O)c2C)c(C)c1	-29.9%	–	0.184 µM [falling, full curve, poor fit]
Cc1nc(N2CCC(C)CC2)c2c(C)c(C(=O)Nc3ccccc3C(F)(F)F)sc2n1	-15.2%	0.116 µM [falling, full curve]	–
COc1ccc(-c2c(-c3ccccc3OC)sc3ccccc23)cc1C=O	20.1%	13 µM [rising, single point]	–
CCOc1ccc(S(=O)(=O)n2nc(C)c(S(=O)(=O)N3CCOCC3)c2C)cc1	-5.65%	1.46 µM [falling, full curve, poor fit]	–

For reference, 2 of the compounds above:
Compound	cell number change	AC50 [1]	AC50 [2]
Cc1cc(C)c(-n2c(C)cc(/C=C3/NC(=O)NC3=O)c2C)c(C)c1	-29.9%	–	0.184 µM [falling, full curve, poor fit]
Cc1nc(N2CCC(C)CC2)c2c(C)c(C(=O)Nc3ccccc3C(F)(F)F)sc2n1	-15.2%	0.116 µM [falling, full curve]	–
